# Test results reported in the supplement of paper PMC8728848.
# Some of the results follow.
# Tests used:
# Assay in all cases: glycan array binding signal (z-score within array); higher = stronger binding
# Conditions in all cases: glycan notation: IUPAC condensed, linker removed
# [1] = biological target: Fuc(a1-2)Gal(b1-4)[Fuc(a1-3)]GlcNAc(b1-2)[Fuc(a1-2)Gal(b1-4)[Fuc(a1-3)]GlcNAc(b1-4)]Man(a1-3)[Fuc(a1-2)Gal(b1-4)[Fuc(a1-3)]GlcNAc(b1-2)Man(a1-6)]Man(b1-4)GlcNAc(b1-4)GlcNAc
# Procedure, shortened: (§1)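 Glycan array binding is given as a within-array Z-score, which can be read as non-binding when negative. The arrays, 3228 of them, came from the Consortium for Functional Glycomics database and were retained only where the protein sequence was available. Z-scores were averaged across arrays of the same protein sequence at different concentrations or buffers and across linkers.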
# [2] = biological target: Fuc(a1-2)Gal(b1-4)[Fuc(a1-3)]GlcNAc(b1-3)Gal(b1-4)[Fuc(a1-3)]GlcNAc
# Procedure, shortened: as §1
# [3] = biological target: Fuc(a1-2)Gal(b1-4)[Fuc(a1-3)]GlcNAc(b1-3)Gal(b1-4)[Fuc(a1-3)]GlcNAc(b1-3)Gal(b1-4)[Fuc(a1-3)]GlcNAc
# Procedure, shortened: as §1
# [4] = biological target: Fuc(a1-2)Gal(b1-4)[Fuc(a1-3)]GlcNAc(b1-3)GalNAc
# Procedure, shortened: as §1
# Fuc(a1-2)Gal6S(b1-4)Glc = biological target: Fuc(a1-2)Gal6S(b1-4)Glc
# Procedure, shortened: as §1
# [5] = biological target: Fuc(a1-2)Gal6S(b1-4)Glc6S
# Procedure, shortened: as §1
# [6] = biological target: Fuc(a1-2)Gal6S(b1-4)GlcNAc
# Procedure, shortened: as §1
# Fuc(a1-2)[Gal(a1-3)]Gal = biological target: Fuc(a1-2)[Gal(a1-3)]Gal
# Procedure, shortened: as §1
# [7] = biological target: Fuc(a1-2)[Gal(a1-3)]Gal(b1-3)GlcNAc
# Procedure, shortened: as §1
# [8] = biological target: Fuc(a1-2)[Gal(a1-3)]Gal(b1-3)GlcNAc(b1-2)Man(a1-3)[Fuc(a1-2)[Gal(a1-3)]Gal(b1-3)GlcNAc(b1-2)Man(a1-6)]Man(b1-4)GlcNAc(b1-4)GlcNAc
# Procedure, shortened: as §1
# [9] = biological target: Fuc(a1-2)[Gal(a1-3)]Gal(b1-3)GlcNAc(b1-3)GalNAc
# Procedure, shortened: as §1
# [10] = biological target: Fuc(a1-2)[Gal(a1-3)]Gal(b1-4)Glc
# Procedure, shortened: as §1
# [11] = biological target: Fuc(a1-2)[Gal(a1-3)]Gal(b1-4)GlcNAc
# Procedure, shortened: as §1
# [12] = biological target: Fuc(a1-2)[Gal(a1-3)]Gal(b1-4)GlcNAc(b1-2)Man(a1-3)[Fuc(a1-2)[Gal(a1-3)]Gal(b1-4)GlcNAc(b1-2)Man(a1-6)]Man(b1-4)GlcNAc(b1-4)GlcNAc
# Procedure, shortened: as §1
# [13] = biological target: Fuc(a1-2)[Gal(a1-3)]Gal(b1-4)GlcNAc(b1-2)Man(a1-3)[Fuc(a1-2)[Gal(a1-3)]Gal(b1-4)GlcNAc(b1-2)Man(a1-6)]Man(b1-4)GlcNAc(b1-4)[Fuc(a1-6)]GlcNAc
# Procedure, shortened: as §1
# [14] = biological target: Fuc(a1-2)[Gal(a1-3)]Gal(b1-4)GlcNAc(b1-3)GalNAc
# Procedure, shortened: as §1
# [15] = biological target: Fuc(a1-2)[Gal(a1-3)]Gal(b1-4)[Fuc(a1-3)]Glc
# Procedure, shortened: as §1
# [16] = biological target: Fuc(a1-2)[Gal(a1-3)]Gal(b1-4)[Fuc(a1-3)]GlcNAc
# Procedure, shortened: as §1
# [17] = biological target: Fuc(a1-2)[Gal(a1-3)]Gal(b1-4)[Fuc(a1-3)]GlcNAc(b1-3)GalNAc
# Procedure, shortened: as §1
# [18] = biological target: Fuc(a1-2)[Gal(a1-4)]Gal(b1-4)GlcNAc
# Procedure, shortened: as §1
# [19] = biological target: Fuc(a1-2)[GalNAc(a1-3)]Gal
# Procedure, shortened: as §1
# [20] = biological target: Fuc(a1-2)[GalNAc(a1-3)]Gal(b1-3)GalNAc(a1-3)[Fuc(a1-2)]Gal(b1-4)GlcNAc
# Procedure, shortened: as §1
# [21] = biological target: Fuc(a1-2)[GalNAc(a1-3)]Gal(b1-3)GlcNAc
# Procedure, shortened: as §1
# [22] = biological target: Fuc(a1-2)[GalNAc(a1-3)]Gal(b1-3)GlcNAc(b1-2)Man(a1-3)[Fuc(a1-2)[GalNAc(a1-3)]Gal(b1-3)GlcNAc(b1-2)Man(a1-6)]Man(b1-4)GlcNAc(b1-4)GlcNAc
# Procedure, shortened: as §1
# [23] = biological target: Fuc(a1-2)[GalNAc(a1-3)]Gal(b1-3)GlcNAc(b1-3)GalNAc
# Procedure, shortened: as §1
# [24] = biological target: Fuc(a1-2)[GalNAc(a1-3)]Gal(b1-4)Glc
# Procedure, shortened: as §1
# [25] = biological target: Fuc(a1-2)[GalNAc(a1-3)]Gal(b1-4)GlcNAc
# Procedure, shortened: as §1
# [26] = biological target: Fuc(a1-2)[GalNAc(a1-3)]Gal(b1-4)GlcNAc(b1-2)Man(a1-3)[Fuc(a1-2)[GalNAc(a1-3)]Gal(b1-4)GlcNAc(b1-2)Man(a1-6)]Man(b1-4)GlcNAc(b1-4)GlcNAc
# Procedure, shortened: as §1
# [27] = biological target: Fuc(a1-2)[GalNAc(a1-3)]Gal(b1-4)GlcNAc(b1-3)Gal(b1-4)GlcNAc
# Procedure, shortened: as §1
# [28] = biological target: Fuc(a1-2)[GalNAc(a1-3)]Gal(b1-4)GlcNAc(b1-3)Gal(b1-4)GlcNAc(b1-3)Gal(b1-4)GlcNAc
# Procedure, shortened: as §1
binder,measurement,setting,value
"pullulanase (Streptococcus pyogenes), Q8KLP1 (protein) MKKKVNQGSKRYQYLLKKWGIGFVIAATGTVMLGCIPSILTHQVAAKTIVGLARDEAQQGDGNAKSGDGFQSSSKEAKPVLDSSSANPASIAEHHLRMHFKTLPAGESLGSLGLWVWGDVDQPSKDWPNGAITMTKAKKDDYGYYLDVPLAAKHRQQVSYLINNKAGENLSKDQHIPLLTPKMNEVWIDENYHAHAYRPLKKGYLRINYHNQSGHYDNLAVWTFKDVKTPTTDWPNGLDLSHKGPYGAYVDVPLKEGANEIGFLILDKSKTGDAIKVQPKDYLFKELDNHTQVFVKDTDPKVYNNPYYIDQVSLKGAEQTTPNEIKAIFTTLDGLDEDAVKQNIKITDKAGKTVAIDELTLDKDKSVMTLKGDFKAQGAVYTVTFGEVSQVARQSWQLKDKLYAYDGELGATLAKDGSVDLALWSPSADSVKVVVYDKQDQTKVVGQADLTKSDKGVWRAHLTSDSVKGISDYTGYYYLYEITRGQEKVMVLDPYAKSLAAWNDATATDDIKTAKAAFIDPSKLGPTGLDFAKINNFKKREDAIIYEAHVRDFTSDKALEGKLTHPFGTFSAFVEQLDYLKDLGVTHVQLLPVLSYFYANELDKTRSTAYTSSDNNYNWGYDPQHYFALSGMYSANPNDPALRIAELKNLVNEIHKRGMGVIFDVVYNHTARTYLFEDLEPNYYHFMNADGTARESFGGGRLGTTHAMSRRILVDSITYLTREFKVDGFRFDMMGDHDAAAIEQAFKAAKAINPNTIMIGEGWRTYQGDEGKKEIAADQDWMKATNTVGVFSDDIRNTLKSGFPNEGTAAFITGGAKNLEGLFKTIKAQPSNFEADAPGDVVQYIAAHDNLTLHDVIAKSINKDPKVAEEEIHKRIRLGNTMILTAQGTAFIHSGQEYGRTKQLLNPDYKTKVSDDKVPNKATLIDAVAQYPYFIHDSYDSSDAVNHFDWAKATDSIAHPISNQTKAYTQGLIALRRSTDAFTKATKAEVDRDVTLITQAGQDGIQQEDLIMGYQTVASNGDRYAVFVNADNKTRKVVLPQAYRYLLGAQVLADAEQVGVTAIAKPKGVQFTKEGLTIDGLTALVLKVSSKTANPSQQKSQTDNHQTKTPDGSKDLDKSLMTRPKRAKTNQKLPKTGEAPSKGLLAAGVALLLLAISLLMKRQKD",glycan array binding signal (z-score),[1],0.911
same,glycan array binding signal (z-score),[2],0.134
same,glycan array binding signal (z-score),[3],2.22
same,glycan array binding signal (z-score),[4],3.14
same,glycan array binding signal (z-score),Fuc(a1-2)Gal6S(b1-4)Glc,0.263
same,glycan array binding signal (z-score),[5],0.585
same,glycan array binding signal (z-score),[6],-0.286
same,glycan array binding signal (z-score),Fuc(a1-2)[Gal(a1-3)]Gal,0.255
same,glycan array binding signal (z-score),[7],-0.132
same,glycan array binding signal (z-score),[8],-0.501
same,glycan array binding signal (z-score),[9],0.215
same,glycan array binding signal (z-score),[10],-0.403
same,glycan array binding signal (z-score),[11],-0.912
same,glycan array binding signal (z-score),[12],-0.328
same,glycan array binding signal (z-score),[13],-0.759
same,glycan array binding signal (z-score),[14],-0.009
same,glycan array binding signal (z-score),[15],-0.686
same,glycan array binding signal (z-score),[16],-0.03
same,glycan array binding signal (z-score),[17],-0.89
same,glycan array binding signal (z-score),[18],-0.131
same,glycan array binding signal (z-score),[19],-0.236
same,glycan array binding signal (z-score),[20],-1.19
same,glycan array binding signal (z-score),[21],-1.41
same,glycan array binding signal (z-score),[22],-0.215
same,glycan array binding signal (z-score),[23],2.51
same,glycan array binding signal (z-score),[24],-1.07
same,glycan array binding signal (z-score),[25],-0.344
same,glycan array binding signal (z-score),[26],-0.346
same,glycan array binding signal (z-score),[27],-0.355
same,glycan array binding signal (z-score),[28],-1.06
